# Laboratory results published in PubChem BioAssay (EPA / NIEHS).
# The chains behind the UniProt entries cited, without tags or fusion partners. Where a name states a change or a piece, a line headed by the entry shows the natural chain unless it says otherwise.
# UniProt P13945: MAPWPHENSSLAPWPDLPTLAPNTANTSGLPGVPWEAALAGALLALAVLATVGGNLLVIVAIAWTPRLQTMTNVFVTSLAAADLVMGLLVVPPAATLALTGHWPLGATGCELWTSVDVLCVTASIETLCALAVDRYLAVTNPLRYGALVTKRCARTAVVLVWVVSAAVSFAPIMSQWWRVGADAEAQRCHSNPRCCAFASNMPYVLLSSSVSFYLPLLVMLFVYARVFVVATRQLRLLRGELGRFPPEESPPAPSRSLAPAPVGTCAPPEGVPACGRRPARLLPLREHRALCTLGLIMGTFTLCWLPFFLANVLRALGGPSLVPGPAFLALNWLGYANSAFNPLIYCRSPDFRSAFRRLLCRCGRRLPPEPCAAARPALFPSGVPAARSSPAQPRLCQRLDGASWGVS
# The shares of active, inactive and inconclusive entries below differ from those in the screen. Potencies beside an inconclusive call are fits to weak or partial responses and may not hold up. The source made the active and inactive calls. The calls were made as follows: active = hit-call score of the fitted dose curve at least 0.9, where 1 is the maximum; inconclusive = response in the unintended direction; inactive = score below 0.9.
# Target: human Adrenergic, Beta 3 Receptor (Adrb3), ADRB3 (gene 155) (UniProt P13945)
# Experiment: NVS_GPCR_hAdrb3: NovaScreen (NVS) G Protein-Coupled Receptor Assay for human Adrenergic, Beta 3 Receptor (Adrb3) (AID 2283262)
# Summary of the method: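 Membranes from SK-N-MC cells pretreated with isoproterenol and 8-bromo-cAMP were used in a radioligand competitive displacement binding assay. Binding was read by filter-based scintillation counting 1 hour after dosing. Primary screening was in duplicate at 25 uM, with concentration series in follow-up.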
Structure (SMILES),AC50,outcome
CN(C)C=O,inconclusive: 25 µM,–
Cn1c(=O)cc(Oc2ccc(F)cc2F)c2cnc(NCC(C)(C)O)nc21,inconclusive: 25 µM,–
CCNc1ccccc1,inconclusive: 25 µM,–
O=C1c2ccccc2C(=O)N1CCc1noc(-c2ccc(CN3CCCCCC3)s2)n1,inconclusive: 3.41 µM,–
Cn1cnc2c1c(=O)[nH]c(=O)n2C,–,inactive
Cc1[nH]cnc1C[C@H]1CCc2c(C)c3ccccc3n2C1=O,inconclusive: 41.1 µM,–
